From PMC3660581 come the findings set out here.

These are yes or no findings as the source states them, for the method shown. Binding can be weak; no strength is given.

The test concerns the target Mitofilin (bovine heart mitochondria) (bovine (endogenous in heart mitochondria)). Description: native gel or EMSA; complexome profiling: bovine heart mitochondria solubilized with digitonin (6 g/g), large pore blue native electrophoresis (5-9%), 52 gel slices, quantitative mass spectrometry, hierarchical clustering of migration profiles. (A gel shift assay detects complexes by their altered migration in electrophoresis.)

B1: coiled-coil-helix-coiled-coil-helix domain containing protein 3 (CHCHD3) (bovine heart mitochondria) (protein, UniProt Q5E9D3 1-227)
chain: MGGTASTRRVTFEADENENITVVKGIRLSENVIDRMKETSPSGPKSQRYSGTYGASVSDEELKRRVAEELALEQAKKESENQKRLKQSKELDAEKAFANEQLTRAILRERISNEEERAKAKHLAKQLEEKDRVIKKQDAFYKEQLARLEERSSEFYKVTTEQYQKAAEEVEAKFKRYEYHPVCADLQAQILQCYRQNTQQTLSCSALASQYMRCVNQAKQSTLEKGG
On to B1, for which the binding entry is “binds”.
